Among the data in PubChem BioAssay AID449 (The Scripps Research Institute Molecular Screening Center, 2006) are activation values, retold here.

Protein sequences, listed by entry. Tags and fused reporters are not part of them.
UniProt P21453, whole entry, looked up: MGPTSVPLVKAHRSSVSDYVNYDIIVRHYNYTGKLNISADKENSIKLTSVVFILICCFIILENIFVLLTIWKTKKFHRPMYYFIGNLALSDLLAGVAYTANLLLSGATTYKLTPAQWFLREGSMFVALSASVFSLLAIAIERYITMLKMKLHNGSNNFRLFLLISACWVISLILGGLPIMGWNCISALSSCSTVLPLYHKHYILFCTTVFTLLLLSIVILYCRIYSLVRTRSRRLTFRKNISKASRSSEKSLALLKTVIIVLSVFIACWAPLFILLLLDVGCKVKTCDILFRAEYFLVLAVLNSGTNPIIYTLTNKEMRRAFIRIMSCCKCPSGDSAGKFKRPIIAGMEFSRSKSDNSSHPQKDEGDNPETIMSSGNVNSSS

Molecules are shown by their SMILES. The list shows a part of the results. Further columns of the screen follow, without active or inactive calls. Most of these compounds were active or inconclusive in the main read-out, so they are no random draw.

The target of the assay is Sphingosine 1-phosphate receptor 1 (Homo sapiens) (UniProt P21453). The assay can be described thus: S1P1 agonists and agonism potentiators, primary screen, cell-based, primary and confirmation screens, CRE-bla reporter (AID 449).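 Note: forskolin at 4 µM as EC80 and the EC20 agonist is SEW2871; 100% = SEW2871 at its EC100 plus forskolin at EC80.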 To be noted: S1P1 CRE-bla cells, forskolin, beta-lactamase FRET, potentiator mode; measured here: confirmation screen, triplicate average; at 9.5 µM; stronger effect = higher value; 100% = saturating reference agonist, 0% = basal; S1P1 agonist co-added at EC20, 2 nM.
With `Nc1nonc1C(=O)NCCNCc1cc(Br)ccc1OCc1ccccc1F`, the activation stood at 110%.
`COc1ccccc1Oc1ccc2c(c1)C(=O)N(c1ccc(O)cc1)C2=O`: the activation is 109%.
`COc1ccc(-c2cn3c(C)c(C(=O)N4CCCc5ccccc54)sc3n2)cc1`: the activation came to 61.1%.
Consider `COc1ccccc1-c1cc(C(=O)Nc2ccccc2SC)no1`, for which the activation was found to be 97.4%.
The figure for `O=C(Nc1ccc(-c2noc(CCc3ccccc3)n2)cc1)c1cccnc1` is 80.9%; for `COc1ccc(-n2c(C)c(C(C)=O)c3cc(O)ccc32)cc1` it is 70.7%.
For the compound `CN1CCN(C(=O)CSc2nc(-c3cccs3)cc(-c3cccs3)c2C#N)CC1`, the activation was 82.4%.
With `CCc1ccc(-c2nc(-c3ccncc3)no2)cc1`, the activation turned out to be 79.5%.
`CCCS(=O)(=O)c1nnnn1-c1cccc(OC)c1`: the activation was 123%.
As for `c1ccc2c(c1)oc1c(N3CCN(Cc4ccc5c(c4)OCO5)CC3)ncnc12`, the figure is 107%.
The figure for `Cc1cc(/C=N/n2cnnc2)c(C)n1-c1ccc(OCc2ccc(F)cc2)cc1` is 118%.
`Cc1cc(C(=O)CSc2nnc(-c3cccs3)o2)c(C)n1-c1ccccc1`: the activation was found to be 104%.
As to `COc1ccc(-c2nc(-c3cccc(C)c3)no2)cc1OC`, the activation stood at 101%.
As for `Fc1ccc2[nH]c3c(N4CCN(c5ccccc5)CC4)ncnc3c2c1`, the figure is 121%.
Regarding `C=CCN1C(=Nc2cccnc2)SCC1(O)c1ccc(C)cc1` (stereo not given), the activation came out at 88.4%.
For `COc1ccc(-n2nc3ccc(NS(C)(=O)=O)cc3n2)cc1Cl`, the activation amounted to 103%.
For the compound `CCCc1ccc(Oc2cn[nH]c2-c2ccc(O)cc2O)cc1`, the activation is 56.7%.
As for `CC(C)(C)C1CCC2(CC1)C(C#N)=C(SCC(=O)Nc1ccccc1)NC(=O)C2C#N` (stereo not given), the activation was determined as 103%.
For the compound `CC(C)c1ccc(OCc2nc(-c3ccccn3)no2)c(Br)c1`, the activation turned out to be 79.4%.
`Cc1nn(Cc2ccc(Cl)c(Cl)c2)c(C)c1NC(=O)c1cc(-c2ccco2)on1`: the activation worked out at 106%.
Consider `COc1ccc(C(c2c(O)ccc3ccccc23)N2CCOCC2)c(OC)c1` (stereo not given), for which the activation came to 111%.
As for `Cc1cccc(N2CCN(C(=O)CSCc3c(C)noc3C)CC2)c1C`, the figure is 87.2%; as for `COc1cc(CSc2nnnn2-c2ccc(C)cc2)cc(OC)c1OC`, 107%; as for `Oc1c(Cl)cc(Cl)cc1Sc1cc(Cl)cc(Cl)c1O`, 117%.
As for `CCN(C1CCCCC1)S(=O)(=O)c1ccc(S(=O)(=O)NCc2ccncc2)cc1`, the figure is 58.5%; as for `c1ccc(-c2ccc(-c3nc(-c4cccnc4)no3)cc2)cc1`, 97.5%; as for `CS(=O)(=O)n1nc(OC(=O)c2cccc3ccccc23)cc1N`, 54.1%.
With `Cc1cc(C(=O)COC(=O)c2csc3c2CCCC3)c(C)n1C`, the activation stood at 72%.
Take `CCOc1ccc(-c2nc(CSCC(=O)N3CCN(c4cccc(OC)c4)CC3)c(C)o2)cc1`: the activation was determined as 77.3%.
As to `Cc1cc(C(=O)N2CCN(C(c3ccccc3)c3ccccc3)CC2)no1`, the activation came out at 85.5%.
Take `CC(C)c1ccc2oc(-c3ccc(N)cc3)nc2c1`: the activation was determined as 61.6%.
With `CCCCOC(=O)c1[nH]c2c(c1C)C(=O)CC(c1cc(OC)c(OC)c(OC)c1)C2` (stereo not given), the activation worked out at 65.5%.
`CCc1ccc2oc(-c3cc(N)cc(C)c3O)nc2c1`: the activation is 60.8%.
For the compound `Cc1nc2sccn2c1-c1csc(NCc2ccccc2)n1`, the activation stood at 102%.
For `Cc1ccc(-c2csc3ncnc(Sc4nnc(CN5CCCCCC5=O)o4)c23)cc1`, the activation came out at 100%.
With `CC(C)(C)OC(=O)N[C@@H](Cc1ccccc1)c1nnc(S(=O)(=O)Cc2cccc(F)c2)o1`, the activation was 63.6%.
Take `Clc1ccc(CSc2nnc(-c3ccncc3)o2)cc1`: the activation stood at 78.1%.
As for `Cc1cc(C)cc(-c2nc(-c3ccncc3)no2)c1`, the activation was found to be 84.5%.
Turning to `CC(C)Cn1c(=O)c(C(=O)Nc2ccccc2S(N)(=O)=O)c(O)c2ccccc21`, the activation was 80.4%.
As for `c1ccc(C(Cc2nc(-c3cccnc3)no2)c2ccccc2)cc1`, the figure is 93.1%; as for `CCOc1ccc(C(=O)Nc2ccc(Cl)cn2)cc1Cl`, 75.6%.
For the compound `N#CCCS(=O)(=O)c1nnnn1-c1ccccc1`, the activation was determined as 91.3%.
`CCOC(=O)/C=C/S(=O)(=O)c1ccc(NC(C)=O)cc1`: the activation turned out to be 121%.
In the case of `Cc1csc(NC(=O)C(Cc2ccccc2)n2cccc2)n1` (stereo not given), the activation was found to be 64.2%.
Turning to `Cc1ccccc1-c1nnc(SCc2ccccc2F)o1`, the activation was determined as 71.5%.
Take `C=CCn1c(SCC(=O)c2cccs2)nc2sc(CC)cc2c1=O`: the activation is 105%.
The figure for `O=S(=O)(NCc1cn2ccsc2n1)c1ccc(Oc2ccccc2)cc1` is 98.4%; for `Clc1ccc(OCc2nnc(SCc3nc4ccccc4[nH]3)n2Cc2ccco2)cc1` it is 92.5%; for `Cc1sc2ncnc(Sc3nnnn3-c3ccccc3)c2c1C` it is 88.7%.
Consider `CCOc1ccc(-c2nnc(-c3ccco3)o2)cc1OCC`, for which the activation worked out at 94%.
As for `COc1cccc(N2CCN(c3ncnc4c3[nH]c3ccc(F)cc34)CC2C)c1` (stereo not given), the figure is 123%; as for `Cc1nc2sc(-c3ccccc3)cc2c(=O)n1-n1cccc1`, 66.2%.
As for `CCc1cc(-c2[nH]ncc2-c2ccc3c(c2)OCO3)c(O)cc1O`, the figure is 74%; as for `Cn1c(SCC(=O)Nc2ccc(N3CCOCC3)c(Cl)c2)nnc1-c1ccccc1`, 82.2%; as for `Cc1ccc(-n2c(C)cc(C(=O)COC(=O)c3c(C)noc3C)c2C)cc1`, 93.8%.
For the compound `O=C(CSc1nc2ccccc2o1)Nc1ccc(N2CCOCC2)c(Cl)c1`, the activation is 115%.
Turning to `CCOC(=O)Cc1csc(NC(=O)c2ccc(Br)s2)n1`, the activation is 55.4%.
The figure for `COc1ccc(CNC(=O)c2cc3c(C)nc4ccccc4c3o2)c(OC)c1` is 76.8%; for `COc1ccc(-c2nc(-c3ccccc3OC)no2)cc1OC` it is 93.5%; for `COC(=O)c1c(C)n(-c2ccc(OC)cc2)c2ccc(O)cc12` it is 77.2%.
Regarding `COc1cccc(-c2nc(-c3ccc(NC(=O)c4cccnc4)cc3)no2)c1`, the activation was found to be 96%.
On to `O=C(CSc1nnc(-c2c[nH]c3ccccc23)o1)N(Cc1ccccc1)c1ccc(F)cc1`, for which the activation was 93.5%.
Take `Cc1nnc(SC(=O)N2c3ccccc3Sc3ccccc32)s1`: the activation was 98.1%.
In the case of `Cc1cc(C(=O)CSc2nc3ccccc3c(=O)n2C)c(C)n1Cc1ccc2c(c1)OCO2`, the activation was determined as 115%.
With `Cc1cc(C(=O)CSc2nnc(-c3ccccc3)n2-c2ccccc2)c(C)n1-c1ncn[nH]1`, the activation was determined as 65.1%.
For the compound `CCCC(=O)Nc1ccc2oc(-c3ccc(OC)c(Br)c3)nc2c1`, the activation came to 90.7%.
For the compound `COc1ccc(-c2[nH]ncc2-c2ccc3c(c2)OCCO3)c(O)c1`, the activation was determined as 94.1%.
For the compound `CCOc1ccc(-c2nc(-c3ccncc3)no2)cc1OCC`, the activation is 105%.
Regarding `Cc1cc(C(=O)CSc2nnc(-c3ccncc3)n2-c2ccccc2)c(C)n1C`, the activation came to 93.4%.
The figure for `Cc1noc(C)c1S(=O)(=O)N(CC(=O)Nc1ccc2c(c1)OCO2)c1ccc(C(C)C)cc1` is 79.8%; for `Cc1cc(/C=N/n2cnnc2)c(C)n1-c1ccc(OCc2ccccc2F)cc1` it is 110%; for `CCCc1ccc(Oc2cn[nH]c2-c2ccc(O)c(C)c2O)cc1` it is 75.9%.
Consider `O=C(Nc1nccs1)c1ccc(S(=O)(=O)NCC2CCCCC2)cc1`, for which the activation amounted to 65.2%.
The figure for `CCCC(=O)c1ccc(N2CCN(C(=O)c3ccccc3Br)CC2)c(F)c1` is 77.7%.
Regarding `CC1Cc2cc(-c3csc(NC(=O)Cc4cccs4)n3)ccc2N1S(C)(=O)=O` (stereo not given), the activation was found to be 85.4%.
For the compound `CCOC(=O)c1cccc2c1-c1ccccc1/C2=N/O`, the activation is 72.5%.
With `CCN(C(=O)c1ccc(C(C)(C)C)cc1)c1nnc(Cn2nnc3ccccc32)s1`, the activation was found to be 113%.
For the compound `O=C(CSC1=NCCS1)Nc1ccnc2ccccc12`, the activation is 113%.
The figure for `Cn1nc(CC(=O)Nc2ccc3c(c2)OCCO3)c2ccccc2c1=O` is 101%; for `Cc1cc(N2CCN(c3nc4ccccc4s3)CC2)n2ncnc2n1` it is 92.3%.
Regarding `Cc1cc(/C=c2/sc3nc4ccccc4n3c2=O)c(C)n1-c1ccccn1`, the activation is 103%.
The figure for `CC(C)(CC(=O)N1CCN(c2ccc(Cl)cc2)CC1)CC1=NS(=O)(=O)c2ccccc2N1` is 112%; for `CC(NC(=O)Nc1nnc(C(F)(F)F)s1)(C(F)(F)F)C(F)(F)F` it is 118%; for `Cc1ccc(-n2ncc3c(N4CCCC(C)C4)ncnc32)c(C)c1` (stereo not given) it is 78.4%.
As for `CCOC(=O)C1CCN(c2ncnc3c2oc2ccccc23)CC1`, the activation was 69.6%.
`COc1ccc2c(c1)CCc1c(C(=O)Nc3ccc(OC)c(OC)c3)noc1-2`: the activation worked out at 100%.
Turning to `Clc1ccc(-n2nnnc2Sc2ncnc3sccc23)cc1`, the activation is 98%.
As to `CCN(CC)c1ccc2cc(NC(=O)CCC(=O)O)c(=O)oc2c1`, the activation is 61.6%.
As for `O=C(c1ccccc1)C(CCC(CN1CCOCC1)C(=O)c1ccccc1)CN1CCOCC1` (stereo not given), the activation came to 86.8%.
Turning to `COc1ccc(NC(=O)c2cc(-c3cccs3)on2)cc1OC`, the activation came to 66%.
As for `CCCn1c(CN2CCN(c3cccc(Cl)c3)CC2)nc2c1c(=O)n(C)c(=O)n2C`, the activation was 108%.
With `CC1(C)CC(=O)C(C=Nc2ccc3[nH]ncc3c2)=C(O)C1`, the activation is 75.3%.
As for `Cc1ccc2[nH]c3c(N4CCCCCC4)ncnc3c2c1`, the activation is 114%.
Regarding `CCc1c(C)nc2ncnn2c1NCCc1ccc(OC)cc1`, the activation worked out at 62.7%.
As for `COc1ccc(-c2nc(-c3ccncc3)no2)cc1OC`, the activation was 97%.
`c1ccc(N2CCN(c3ncnc4c3oc3ccccc34)CC2)cc1`: the activation was 76.7%.
Turning to `O=S1(=O)C=C(Sc2nc3ccccc3s2)c2ccccc21`, the activation was found to be 118%.
As for `CC(C)(C)OC(=O)N[C@@H](Cc1ccccc1)c1nnc(S(=O)(=O)Cc2ccccc2)o1`, the figure is 98.8%.
Turning to `Cc1cc(C(=O)Nc2sc(C)c(-c3ccc(F)cc3)c2C(N)=O)no1`, the activation turned out to be 86.9%.
On to `CCc1oc2ccccc2c1C(=O)c1cc(Br)c(O)c(Br)c1`, for which the activation came to 91.5%.
As to `O=C(Nc1nc(-c2ccc(Cl)s2)cs1)c1ccncc1`, the activation is 89.8%.
Regarding `CCCc1ccc(OCc2nc(-c3ccc(NC(=O)c4ccco4)cc3)no2)cc1`, the activation came to 71.3%.
As for `CC(C)c1ccc2oc(-c3cc(N)ccc3O)nc2c1`, the activation was 66.5%.
With `CC1=C(C(=O)OCc2ccc3c(c2)OCO3)C(c2ccc(F)cc2)NC(=O)N1` (stereo not given), the activation came to 83%.
In the case of `Cc1nn(-c2nc3ccccc3s2)c(N)c1-c1ccccc1`, the activation was determined as 95.2%.
Take `O=S1(=O)Nc2c(ccc3cccnc23)-c2ccccc21`: the activation is 62.7%.
`O=S(=O)(CCSc1ccccn1)c1nc2ccccc2s1`: the activation was 73.7%.
Regarding `Cc1csc(SCC(=O)c2cc(C)n(Cc3cccs3)c2C)n1`, the activation turned out to be 79%.
Regarding `c1ccc(CNc2ncnc3ccccc23)cc1`, the activation was found to be 98.3%.
On to `COc1ccc(-c2noc(-c3cc(C)cc(C)c3)n2)cc1OC`, for which the activation was found to be 93.4%.
